Our source for the binding values is article doi:10.1101/2025.06.30.662258.

Protein sequences, listed by entry. Tags and fused reporters are not part of them.
UniProt Q99496: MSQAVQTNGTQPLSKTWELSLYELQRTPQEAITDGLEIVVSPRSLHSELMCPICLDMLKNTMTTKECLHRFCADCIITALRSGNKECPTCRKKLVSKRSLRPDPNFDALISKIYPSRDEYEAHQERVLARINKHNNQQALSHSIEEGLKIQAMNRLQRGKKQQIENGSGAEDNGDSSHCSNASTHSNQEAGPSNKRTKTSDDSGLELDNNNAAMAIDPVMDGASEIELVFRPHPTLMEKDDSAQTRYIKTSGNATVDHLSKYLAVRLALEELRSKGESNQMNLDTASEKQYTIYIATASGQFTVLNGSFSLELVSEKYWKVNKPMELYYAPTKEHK

Where two headings read alike, the source gives them in different places. No constants are given. Whether binding was seen depends on the method and setting. In cells and extracts the contact can be indirect. Some results given as binding are weak or reduced against the parent protein; the word gives no strength.

Common to all, as to assay: co-IP
Test [1] addresses T1, Fibrillarin (FBL) (UniProt P22087).
T1 sequence: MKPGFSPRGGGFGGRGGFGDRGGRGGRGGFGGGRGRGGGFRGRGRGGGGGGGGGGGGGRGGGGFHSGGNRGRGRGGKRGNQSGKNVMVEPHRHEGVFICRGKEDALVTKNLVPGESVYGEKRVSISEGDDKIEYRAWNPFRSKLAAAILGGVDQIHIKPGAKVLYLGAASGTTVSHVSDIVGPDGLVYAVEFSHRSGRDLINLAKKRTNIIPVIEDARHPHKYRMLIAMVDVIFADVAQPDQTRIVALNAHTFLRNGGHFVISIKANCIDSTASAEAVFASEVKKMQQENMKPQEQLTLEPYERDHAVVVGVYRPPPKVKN

The target of test [2] is T1, Fibrillarin (FBL). The source holds these as a separate data set.
For the next test, the target named is T2, Midnolin (UniProt Q504T8).
T2 sequence: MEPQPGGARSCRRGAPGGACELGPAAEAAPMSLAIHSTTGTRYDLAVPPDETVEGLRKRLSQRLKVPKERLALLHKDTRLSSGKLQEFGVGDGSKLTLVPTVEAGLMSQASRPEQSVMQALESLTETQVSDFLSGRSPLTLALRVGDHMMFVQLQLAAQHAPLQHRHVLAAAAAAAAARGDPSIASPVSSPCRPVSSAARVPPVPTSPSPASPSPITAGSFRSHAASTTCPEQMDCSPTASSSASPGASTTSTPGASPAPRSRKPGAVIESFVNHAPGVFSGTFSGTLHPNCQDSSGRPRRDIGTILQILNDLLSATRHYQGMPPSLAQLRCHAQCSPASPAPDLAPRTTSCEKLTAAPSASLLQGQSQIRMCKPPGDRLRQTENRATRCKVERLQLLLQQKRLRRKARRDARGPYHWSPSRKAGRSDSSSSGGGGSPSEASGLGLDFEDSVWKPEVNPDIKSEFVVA

With RING1B (from UniProt Q99496 1-336), in the test with Fibrillarin (FBL) [1], the binding entry is “binds”.

B1: USP36 (Ubiquitin-Specific Protease 36) (enzyme, UniProt Q9P275 1-1123)
chain: MPIVDKLKEALKPGRKDSADDGELGKLLASSAKKVLLQKIEFEPASKSFSYQLEALKSKYVLLNPKTEGASRHKSGDDPPARRQGSEHTYESCGDGVPAPQKVLFPTERLSLRWERVFRVGAGLHNLGNTCFLNATIQCLTYTPPLANYLLSKEHARSCHQGSFCMLCVMQNHIVQAFANSGNAIKPVSFIRDLKKIARHFRFGNQEDAHEFLRYTIDAMQKACLNGCAKLDRQTQATTLVHQIFGGYLRSRVKCSVCKSVSDTYDPYLDVALEIRQAANIVRALELFVKADVLSGENAYMCAKCKKKVPASKRFTIHRTSNVLTLSLKRFANFSGGKITKDVGYPEFLNIRPYMSQNNGDPVMYGLYAVLVHSGYSCHAGHYYCYVKASNGQWYQMNDSLVHSSNVKVVLNQQAYVLFYLRIPGSKKSPEGLISRTGSSSLPGRPSVIPDHSKKNIGNGIISSPLTGKRQDSGTMKKPHTTEEIGVPISRNGSTLGLKSQNGCIPPKLPSGSPSPKLSQTPTHMPTILDDPGKKVKKPAPPQHFSPRTAQGLPGTSNSNSSRSGSQRQGSWDSRDVVLSTSPKLLATATANGHGLKGNDESAGLDRRGSSSSSPEHSASSDSTKAPQTPRSGAAHLCDSQETNCSTAGHSKTPPSGADSKTVKLKSPVLSNTTTEPASTMSPPPAKKLALSAKKASTLWRATGNDLRPPPPSPSSDLTHPMKTSHPVVASTWPVHRARAVSPAPQSSSRLQPPFSPHPTLLSSTPKPPGTSEPRSCSSISTALPQVNEDLVSLPHQLPEASEPPQSPSEKRKKTFVGEPQRLGSETRLPQHIREATAAPHGKRKRKKKKRPEDTAASALQEGQTQRQPGSPMYRREGQAQLPAVRRQEDGTQPQVNGQQVGCVTDGHHASSRKRRRKGAEGLGEEGGLHQDPLRHSCSPMGDGDPEAMEESPRKKKKKKRKQETQRAVEEDGHLKCPRSAKPQDAVVPESSSCAPSANGWCPGDRMGLSQAPPVSWNGERESDVVQELLKYSSDKAYGRKVLTWDGKMSAVSQDAIEDSRQARTETVVDDWDEEFDRGKEKKIKKFKREKRRNFNAFQKLQTRRNFWSVTHPAKAASLSYRR
B1: the binding result with Fibrillarin (FBL) [2] and with Midnolin was “binds” throughout.

B2: Midnolin (protein, UniProt Q504T8 1-468)
chain: MEPQPGGARSCRRGAPGGACELGPAAEAAPMSLAIHSTTGTRYDLAVPPDETVEGLRKRLSQRLKVPKERLALLHKDTRLSSGKLQEFGVGDGSKLTLVPTVEAGLMSQASRPEQSVMQALESLTETQVSDFLSGRSPLTLALRVGDHMMFVQLQLAAQHAPLQHRHVLAAAAAAAAARGDPSIASPVSSPCRPVSSAARVPPVPTSPSPASPSPITAGSFRSHAASTTCPEQMDCSPTASSSASPGASTTSTPGASPAPRSRKPGAVIESFVNHAPGVFSGTFSGTLHPNCQDSSGRPRRDIGTILQILNDLLSATRHYQGMPPSLAQLRCHAQCSPASPAPDLAPRTTSCEKLTAAPSASLLQGQSQIRMCKPPGDRLRQTENRATRCKVERLQLLLQQKRLRRKARRDARGPYHWSPSRKAGRSDSSSSGGGGSPSEASGLGLDFEDSVWKPEVNPDIKSEFVVA
As to B2, in the test with Fibrillarin (FBL) [2], the binding entry is reported as “binds”.
